# According to PMC5996148:
# Where “and” joins values, the source holds several entries; their conditions need not be identical. Identical values can stand only once. The list shows a part of the results.
# Experiments:
# Test in all cases: protein microarray (ProtoArray v5.0), streptavidin-Alexa Fluor 647
# Details in all cases: 3'-biotin; 20 mM Tris (pH 7.5), 5 mM MgCl2, 100 mM KCl, 0.1% Tween-20, A/T-rich and random oligonucleotide blockers; temperature not stated; high values mean tight binding
# [1] = test system: cDNA clone MGC:71618 IMAGE:30347370 (human)
# [2] = test system: cDNA clone MGC:71981 IMAGE:30324263 (human)
# [3] = test system: cDNA clone MGC:8430 IMAGE:2821116 (human)
# [4] = test system: cDNA clone MGC:87051 IMAGE:5296643 (human)
# [5] = test system: cDNA clone MGC:87928 IMAGE:5104751 (human)
# [6] = test system: cDNA clone MGC:88809 IMAGE:6279986 (human)
# [7] = test system: cDNA clone MGC:90486 IMAGE:5755352 (human)
# [8] = test system: hypothetical LOC554201 (human)
# [9] = test system: in the protein list file (human)
# [10] = test system: juvenile (human)
sequence,measurement,setting,value
GGGAGGCTGAGGCAGG [G4-1 biotinylated (PQS2)],binding signal,[1],-0.311 z-score
same,binding signal,[2],-0.344 z-score
same,binding signal,[3],-0.346 z-score
same,binding signal,[4],-0.326 z-score
same,binding signal,[5],-0.347 z-score
same,binding signal,[6],-0.343 z-score
same,binding signal,[7],-0.286 z-score
same,binding signal,[8],-0.35 z-score
same,binding signal,[9],-0.335 z-score and -0.308 z-score
same,binding signal,[10],-0.343 z-score
